Laboratory results taken from paper doi:10.1101/2021.02.07.430173.
No constants are given. Whether binding was seen depends on the method and setting. In cells and extracts the contact can be indirect. These calls come from enrichment with a bait or labelling near it, and not all partners need be listed.

By UniProt entry, the sequences of proteins in these tests, tags left out.
UniProt P97496: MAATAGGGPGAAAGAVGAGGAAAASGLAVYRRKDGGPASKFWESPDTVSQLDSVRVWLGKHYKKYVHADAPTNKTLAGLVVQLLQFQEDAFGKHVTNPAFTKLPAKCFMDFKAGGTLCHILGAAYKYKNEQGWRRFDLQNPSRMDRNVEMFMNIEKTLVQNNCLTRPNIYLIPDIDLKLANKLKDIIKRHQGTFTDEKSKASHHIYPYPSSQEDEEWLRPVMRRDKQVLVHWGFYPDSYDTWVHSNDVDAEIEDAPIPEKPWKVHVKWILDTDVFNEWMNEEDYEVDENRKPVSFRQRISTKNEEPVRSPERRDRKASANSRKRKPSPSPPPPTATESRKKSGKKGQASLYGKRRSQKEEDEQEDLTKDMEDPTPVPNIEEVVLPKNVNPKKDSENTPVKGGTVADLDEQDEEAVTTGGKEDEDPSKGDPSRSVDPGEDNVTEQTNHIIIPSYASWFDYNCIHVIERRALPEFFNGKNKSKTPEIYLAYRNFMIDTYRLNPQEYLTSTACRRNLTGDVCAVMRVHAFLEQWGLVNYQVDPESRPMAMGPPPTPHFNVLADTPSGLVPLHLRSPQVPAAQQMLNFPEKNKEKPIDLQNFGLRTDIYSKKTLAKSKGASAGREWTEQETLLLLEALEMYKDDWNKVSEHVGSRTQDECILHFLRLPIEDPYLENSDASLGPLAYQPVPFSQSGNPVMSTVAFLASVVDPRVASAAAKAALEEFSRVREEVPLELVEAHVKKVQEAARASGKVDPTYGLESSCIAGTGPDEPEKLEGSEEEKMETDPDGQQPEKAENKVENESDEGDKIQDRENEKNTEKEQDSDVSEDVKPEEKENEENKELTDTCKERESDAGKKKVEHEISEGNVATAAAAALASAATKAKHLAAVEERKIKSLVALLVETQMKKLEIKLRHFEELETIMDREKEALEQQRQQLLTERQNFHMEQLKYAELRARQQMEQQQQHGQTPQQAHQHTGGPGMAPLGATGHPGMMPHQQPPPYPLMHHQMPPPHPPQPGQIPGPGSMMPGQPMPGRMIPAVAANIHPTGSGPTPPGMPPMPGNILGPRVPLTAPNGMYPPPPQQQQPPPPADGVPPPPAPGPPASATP
UniProt Q61466: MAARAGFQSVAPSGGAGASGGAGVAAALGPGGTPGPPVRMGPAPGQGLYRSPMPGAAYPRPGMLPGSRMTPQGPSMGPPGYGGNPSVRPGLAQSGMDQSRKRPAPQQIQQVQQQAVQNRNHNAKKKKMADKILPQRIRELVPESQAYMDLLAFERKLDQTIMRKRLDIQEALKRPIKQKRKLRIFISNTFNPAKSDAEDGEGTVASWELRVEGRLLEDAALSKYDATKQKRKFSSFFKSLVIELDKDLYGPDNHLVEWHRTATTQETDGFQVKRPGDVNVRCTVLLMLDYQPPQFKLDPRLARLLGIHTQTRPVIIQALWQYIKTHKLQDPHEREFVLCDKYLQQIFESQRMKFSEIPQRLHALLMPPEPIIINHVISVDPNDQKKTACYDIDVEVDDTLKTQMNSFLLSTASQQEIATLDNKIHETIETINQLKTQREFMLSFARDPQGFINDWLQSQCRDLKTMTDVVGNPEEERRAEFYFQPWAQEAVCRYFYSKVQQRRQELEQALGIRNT

T1: POGZ (endogenous, mouse ESCs) (mouse (endogenous in mouse ESCs)) (UniProt Q8BZH4)
T1 sequence: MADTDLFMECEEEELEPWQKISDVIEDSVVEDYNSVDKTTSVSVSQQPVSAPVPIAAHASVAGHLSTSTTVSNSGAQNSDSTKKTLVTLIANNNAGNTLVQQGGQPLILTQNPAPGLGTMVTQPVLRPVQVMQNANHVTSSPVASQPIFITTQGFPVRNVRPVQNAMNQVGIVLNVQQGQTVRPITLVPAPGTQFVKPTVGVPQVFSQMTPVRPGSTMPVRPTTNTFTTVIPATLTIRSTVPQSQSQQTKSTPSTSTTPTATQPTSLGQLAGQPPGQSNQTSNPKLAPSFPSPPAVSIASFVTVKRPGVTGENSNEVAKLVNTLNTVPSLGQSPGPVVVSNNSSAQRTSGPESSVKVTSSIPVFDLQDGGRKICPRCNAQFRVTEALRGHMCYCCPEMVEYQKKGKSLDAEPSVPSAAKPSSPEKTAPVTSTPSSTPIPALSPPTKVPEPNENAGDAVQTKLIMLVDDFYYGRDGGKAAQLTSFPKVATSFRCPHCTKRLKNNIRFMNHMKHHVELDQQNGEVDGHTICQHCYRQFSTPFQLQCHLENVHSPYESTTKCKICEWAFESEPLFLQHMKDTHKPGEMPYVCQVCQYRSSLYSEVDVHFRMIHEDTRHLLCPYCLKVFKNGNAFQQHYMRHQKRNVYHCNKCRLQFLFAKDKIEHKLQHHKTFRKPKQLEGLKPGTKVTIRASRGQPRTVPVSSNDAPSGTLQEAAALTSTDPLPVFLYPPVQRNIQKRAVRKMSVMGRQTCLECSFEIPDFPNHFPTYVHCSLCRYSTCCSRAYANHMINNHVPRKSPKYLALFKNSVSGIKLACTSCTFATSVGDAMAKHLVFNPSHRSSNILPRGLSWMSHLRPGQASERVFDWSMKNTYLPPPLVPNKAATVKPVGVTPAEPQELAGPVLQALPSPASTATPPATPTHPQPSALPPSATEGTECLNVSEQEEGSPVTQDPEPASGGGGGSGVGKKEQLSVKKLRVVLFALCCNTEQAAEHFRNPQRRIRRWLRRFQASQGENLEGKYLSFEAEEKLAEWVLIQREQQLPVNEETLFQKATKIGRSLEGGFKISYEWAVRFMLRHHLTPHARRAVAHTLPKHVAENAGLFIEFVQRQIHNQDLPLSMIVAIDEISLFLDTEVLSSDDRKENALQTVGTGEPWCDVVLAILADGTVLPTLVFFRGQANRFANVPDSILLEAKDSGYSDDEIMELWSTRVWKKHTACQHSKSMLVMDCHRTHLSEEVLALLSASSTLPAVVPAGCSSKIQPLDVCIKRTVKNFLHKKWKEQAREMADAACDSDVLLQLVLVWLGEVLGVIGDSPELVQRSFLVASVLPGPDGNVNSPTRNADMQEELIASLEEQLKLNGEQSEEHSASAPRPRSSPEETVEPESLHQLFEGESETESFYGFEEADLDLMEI

B1: Nono (mouse ESCs) (protein, UniProt Q99K48 1-473)
chain: MQSNKAFNLEKQNHTPRKHHQHHHQQHHQQQQQQQQQQPPPPIPANGQQASSQNEGLTIDLKNFRKPGEKTFTQRSRLFVGNLPPDITEEEMRKLFEKYGKAGEVFIHKDKGFGFIRLETRTLAEIAKVELDNMPLRGKQLRVRFACHSASLTVRNLPQYVSNELLEEAFSVFGQVERAVVIVDDRGRPSGKGIVEFSGKPAARKALDRCSEGSFLLTTFPRPVTVEPMDQLDDEEGLPEKLVIKNQQFHKEREQPPRFAQPGSFEYEYAMRWKALIEMEKQQQDQVDRNIKEAREKLEMEMEAARHEHQVMLMRQDLMRRQEELRRMEELHNQEVQKRKQLELRQEEERRRREEEMRRQQEEMMRRQQEGFKGTFPDAREQEIRMGQMAMGGAMGINNRGAMPPAPVPPGTPAPPGPATMMPDGTLGLTPPTTERFGQAATMEGIGAIGGTPPAFNRPAPGAEFAPNKRRRY
B2: Sfpq (mouse ESCs) (protein, UniProt Q8VIJ6 1-699)
chain: MSRDRFRSRGGGGGGFHRRGGGGGRGGLHDFRSPPPGMGLNQNRGPMGPGPGGPKPPLPPPPPHQQQQQPPPQQPPPQQPPPHQQPPPHQPPHQQPPPPPQESKPVVPQGPGSAPGVSSAPPPAVSAPPANPPTTGAPPGPGPTPTPPPAVPSTAPGPPPPSTPSSGVSTTPPQTGGPPPPPAGGAGPGPKPGPGPGGPKGGKMPGGPKPGGGPGMGAPGGHPKPPHRGGGEPRGGRQHHAPYHQQHHQGPPPGGPGPRTEEKISDSEGFKANLSLLRRPGEKTYTQRCRLFVGNLPADITEDEFKRLFAKYGEPGEVFINKGKGFGFIKLESRALAEIAKAELDDTPMRGRQLRVRFATHAAALSVRNLSPYVSNELLEEAFSQFGPIERAVVIVDDRGRSTGKGIVEFASKPAARKAFERCSEGVFLLTTTPRPVIVEPLEQLDDEDGLPEKLAQKNPMYQKERETPPRFAQHGTFEYEYSQRWKSLDEMEKQQREQVEKNMKDAKDKLESEMEDAYHEHQANLLRQDLMRRQEELRRMEELHSQEMQKRKEMQLRQEEERRRREEEMMIRQREMEEQMRRQREESYSRMGYMDPRERDMRMGGGGTMNMGDPYGSGGQKFPPLGGGGGIGYEANPGVPPATMSGSMMGSDMRTERFGQGGAGPVGGQGPRGMGPGTPAGYGRGREEYEGPNKKPRF
B3: Mybbp1a (mouse ESCs) (protein, UniProt Q7TPV4 1-1344)
chain: MAEMKSPTKAEPATPAEAAQSDRHSLLEHSREFLDFFWDIAKPDQETRLRATEKLLEYLRTRPNDSEMKYALKRLITGLGVGREAARPCYSLALAQLLQSFEDIPLCDILDQIQEKYSLQAMNKAMMRPSLFANLFGVLALFQSGRLVKDKEALMKSVQLLKILSQHPNHLQGQPIKALVDILSEVPESMFQEILPKVLKGNMKVILRSPKYLELFLLAKQRVPTKLESLMGSVDLFSEDNIPSLVNILKVAANSVKKEHKLPNVALDLLRLALKESRFELFWKKVLEEGLLKNPSWTSSYMCFRLLGASLPLLSEEQLQLVMRGDLIRHFGENMVISKPQNLFKIIPEISTYVGTFLEGCQDDPKRQLTMMVAFTTITNQGLPVMPTFWRVTRFLNAEALQSYVAWLRDMFLQPDLNSLVDFSTANQKRAQDASLNVPERAVFRLRKWIIHRLVSLVDHLHLEKDEAVVEQIARFCLFHAFFKTKKATPQIPETKQHFSFPLDDRNRGVFVSAFFSLLQTLSVKFRQTPDLAENGKPWTYRLVQLADMLLNHNRNVTSVTSLTTQQRQAWDQMMSTLKELEARSSETRAIAFQHLLLLVGLHIFKSPAESCDVLGDIQTCIKKSMEQNPRRSRSRAKASQEPVWVEVMVEILLSLLAQPSNLMRQVVRSVFGHICPHLTPRCLQLILAVLSPVTNEDEDDNVVVTDDADEKQLQHGEDEDSDNEDNKNSESDMDSEDGEESEEEDRDKDVDPGFRQQLMEVLKAGNALGGVDNEEEEELGDEAMMALDQNLASLFKEQKMRIQARNEEKNKLQKEKKLRRDFQIRALDLIEVLVTKQPEHPLILELLEPLLNVIQHSMRSKGSTKQEQDLLHKTARIFMHHLCRARRYCHEVGPCAEALHAQVERLVQQAGSQADASVALYYFNASLYLLRVLKGNTNKRHQDGHKLHGADTEDSEDQAANCLDLDFVTRVYSASLESLLTKRNSSLTVPMFLSLFSRYPVICKNLLPVLAQHVAGPSRPRHQAQACLMLQKTLSARELRVCFEDPEWEQLITQLLGKATQTLQTLGEAQSKGEHQKELSILELLNTLLRTVNHEKLSVDLTAPLGVLQSKQQKLQQSLQQGNHSSGSNRLYDLYWQAMRMLGVQRPKSEKKNAKDIPSDTQSPVSTKRKKKGFLPETKKRKKLKSEGTTPEKNAASQQDAVTEGAMPAATGKDQPPSTGKKKRKRVKASTPSQVNGITGAKSPAPSNPTLSPSTPAKTPKLQKKKEKLSQVNGATPVSPIEPESKKHHQEALSTKEVIRKSPHPQSALPKKRARLSLVSRSPSLLQSGVKKRRVASRRVQTP

target: T1, POGZ (endogenous, mouse ESCs) (mouse (endogenous in mouse ESCs)); experiment: affinity purification with mass spectrometry

binding, binds:
SMARCC1/BAF155 (endogenous, mouse ESCs) (from UniProt P97496 1-1104)
SMARCD1/BAF60a (mouse ESCs) (from UniProt Q61466 1-515)
B1
B2
B3
